## Percent effect of library compounds

Chains of the proteins cited; added tags and fusions are not shown. Residues count along the entry.
UniProt P9WPC5, whole entry: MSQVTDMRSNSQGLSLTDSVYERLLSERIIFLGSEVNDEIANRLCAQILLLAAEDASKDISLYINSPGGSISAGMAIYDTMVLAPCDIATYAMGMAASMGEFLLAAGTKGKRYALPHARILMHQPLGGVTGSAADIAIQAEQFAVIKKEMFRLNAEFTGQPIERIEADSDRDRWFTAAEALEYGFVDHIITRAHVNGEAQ
UniProt P9WPC3, whole entry partner: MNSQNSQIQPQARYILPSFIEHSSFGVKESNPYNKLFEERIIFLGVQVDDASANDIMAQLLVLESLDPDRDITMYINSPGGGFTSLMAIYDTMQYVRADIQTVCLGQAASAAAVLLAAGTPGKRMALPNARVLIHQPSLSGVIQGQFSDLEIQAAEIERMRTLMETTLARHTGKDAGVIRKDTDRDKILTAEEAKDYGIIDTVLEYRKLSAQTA
UniProt A4I591, 1-473: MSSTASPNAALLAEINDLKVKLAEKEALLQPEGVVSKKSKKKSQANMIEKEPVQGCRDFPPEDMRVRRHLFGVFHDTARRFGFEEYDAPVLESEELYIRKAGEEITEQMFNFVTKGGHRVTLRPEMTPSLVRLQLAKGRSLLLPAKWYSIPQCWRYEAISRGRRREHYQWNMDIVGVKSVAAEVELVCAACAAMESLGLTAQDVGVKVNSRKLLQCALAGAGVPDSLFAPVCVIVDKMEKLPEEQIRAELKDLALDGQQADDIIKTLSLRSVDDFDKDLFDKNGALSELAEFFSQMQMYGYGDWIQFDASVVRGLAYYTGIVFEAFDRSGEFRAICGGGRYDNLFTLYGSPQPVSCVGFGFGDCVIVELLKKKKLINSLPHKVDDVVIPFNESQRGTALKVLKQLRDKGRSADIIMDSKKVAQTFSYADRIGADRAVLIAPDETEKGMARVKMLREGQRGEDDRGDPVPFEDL

ClpP1P2: 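ClpP1P2, Mycobacterium tuberculosis (UniProt P9WPC5 and UniProt P9WPC3). Protease assay of ClpP1P2, read by the AMC dye that it sets free. Concentration: 50 µM. Higher reads as stronger inhibition, judged from the few compounds that gave an IC50. Most other retested compounds had strongly negative values. Size under these conditions: about 69,000 compounds, about 10 of them at 50% or above in at least one test.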
LiHisRS: 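Histidine-tRNA ligase, Leishmania infantum (UniProt A4I591). Enzyme assay of histidyl-tRNA synthetase; the read-out is not stated. Tested at 30 µM. Higher reads as stronger inhibition (inferred: compounds with an IC50 in retests scored well above the rest). The assay is labelled LdHisRS but filed under L. infantum. Size under these conditions: about 69,000 compounds, about 410 of them at 50% or above in at least one test.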

Each number is a percent effect as filed.
The controls that fix the scale are not given in the record; negative values are as filed.
This is an unselected part of the compounds tested.

compound,ClpP1P2,LiHisRS
O=C(Cc1cnc(-c2c(Cl)cccc2Cl)s1)N1CCC2(CC1)OCCO2,-12,1.099
CCn1ncnc1CN(CCOC)Cc1ccc(C)cc1,-8.326,-2.632
Fc1ccc(-c2nc(CN3CCCC3Cn3cncn3)co2)cc1F (centres undefined),-12.86,1.786
CCNC(=O)O[C@H]1COCCN(c2nc3ccccc3s2)C1,-3.634,22.22
C=Cn1ncc(CN2CCc3nc(-c4ccncc4)nc(O)c3C2)c1C,-0.1914,32.29
CCc1[nH]c(C2(N)CCCCC2)nc(=O)c1C,-5.683,20.35
CCCc1n[nH]c(C2CN(C(=O)c3ccc4c(c3)COC4)CCO2)n1 (centres undefined),-27.14,16.96
CN1CCCC1c1ccnc2nccn12 (centres undefined),-6.231,9.79
O=C(CCCOc1cccc(F)c1)N1CCCC(n2cccn2)C1 (centres undefined),-15.01,13.68
CC(=O)c1sc(Nc2ccc(Cl)cn2)nc1C,22.51,19.51
N#Cc1ccc(N2CCN(c3ncccn3)CC2)c(C(F)(F)F)c1,-4.756,9.244
Nc1ncc(C(=O)N2CCC3(CCCO3)CC2)c(-c2ccccc2)n1,-10.97,-1.754
Cc1nn(C)cc1CN1CCCC(n2c(=O)oc3ccc(Cl)cc32)C1 (centres undefined),26.58,13.04
CCc1nc(Nc2cccc(C(=O)NC)c2)c2c(n1)c(C)nn2CC,0.7978,8.621
CN(CCCOc1ccccc1)Cc1nc2c(cnn2C)c(=O)[nH]1,-33.21,13.39
Cc1nsc(N2CCCN(C(=O)NCc3cccnc3)CC2)n1,2.16,15.62
Cn1cc(NC(=O)Cc2cccs2)c(=O)n(C)c1=O,-3.917,6.383
Cc1ccsc1CN(Cc1cccnc1)C1CC(C)(C)NC(C)(C)C1,-18.13,4.348
Clc1ccc(CN2CCN(Cn3nccc3-c3cccnc3)CC2)s1,4.463,16.23
Cc1c(C(=O)NC2CCCOC2)nnn1-c1ccccc1 (centres undefined),-0.4084,-0.6897
CCS(=O)(=O)N1C[C@@H](c2ccccc2)[C@@]2(CCNC2=O)C1,-1.276,10
CC(NCCN1CCC(N(C)C)CC1)c1ccc(Cl)s1 (centres undefined),-8.437,9.091
O=S(=O)(Cc1cccc(F)c1)NCC(O)Cc1ccccc1 (centres undefined),-7.871,8.264
Fc1cnc(N2CCO[C@H]3CN(CC4CCCC4)C[C@H]32)nc1,9.476,16.98
Cc1nn2c(N3CCC(C(N)=O)CC3)cc(-c3ccccc3)nc2c1C,-12.05,12.9
CC(=O)NCc1nc(CCOc2ccc(Cl)cc2)no1,-10.73,5.263
Cc1cc(N2CCC(C(=O)NC3CC3)CC2)nc(-c2ccncc2)n1,-14.18,29.06
Cn1cc(S(=O)(=O)NCC2CCN(C(=O)c3ccoc3)CC2)cn1,-19.44,6.78
CCCc1nn(C2CCN(C(C)C)C2=O)c(=O)o1 (centres undefined),5.144,16.44
O=C1COC2(CCN(C(=O)c3ccco3)CC2)CN1Cc1ccccn1,8.408,17.07
COc1cc(N2C[C@H]3CCC[C@@H](CN4CCCC4)[C@H]3C2)ncn1,9.072,41.28
CCN(Cc1nc(-c2ccco2)no1)Cc1cccc2c1OCO2,-10.11,0
Cc1nc(CN2CCOCC23CCN(c2ccc(C#N)cc2)CC3)cs1,-13.61,22.41
O=C(NCC1(O)CCSC1)c1cccc(-n2cccn2)c1 (centres undefined),-2.579,-14.29
CC(C(=O)N1CCN(C(=O)c2ccc(F)cc2F)CC1)n1ccnc1 (centres undefined),-1.801,14.52
Cc1ccc2c(c1)[C@@H](CC(=O)N1CCOCC1)CCO2,12.42,22.86
CCOc1ccc(CN2CCCC(c3cc4ncccc4[nH]3)C2)cc1 (centres undefined),-25.59,10.07
Cc1ccc(CN2CC[C@H]3C[C@H](c4nc(C5CC5)cs4)O[C@@H]3C2)o1,-4.618,20.55
O=C(Cn1cc(I)cn1)NCC1CCC1,-8.159,13.16
O=S(=O)(CCNCc1ccc(Cl)cc1)N1CCOCC1,-12.33,12.9
CCOc1ncccc1Cn1cc(-c2nccn2C)nn1,-8.968,22.5
COc1cc(C)ccc1OCc1nc(C(=O)N2CCCNC(=O)C2)co1,-8.585,-28.21
Cc1cc(C(=O)NCc2cccnc2N2CCCC(O)C2)[nH]n1 (centres undefined),7.622,18.07
CCOCC1CN(C(=O)N(C)C)Cc2nn(C)cc21 (centres undefined),2.782,15.09
O=C1CC[C@]2(CC[C@@H](NCc3ccc4c(c3)OCO4)CC2)N1,-12.99,1.942
O=C(c1cccc(S(=O)(=O)NCCCc2ccco2)c1)N1CCOCC1,-5.397,28.85
Cc1c(C(=O)NC2CCCOc3cc(Cl)ccc32)cnn1C (centres undefined),-1.444,0
COC(=O)NCC(=O)N1CCC(Oc2cccc(C)c2)CC1,-6.73,5.479
CN(C)C(=O)[C@]12CCCN(CC3CC3)C[C@H]1CN(c1ccccn1)C2,-21.33,11.11
Cc1cc(C)cc(C(=O)NCCS(=O)(=O)N2CCSCC2)c1,-12.58,8.85
Cc1cc(NC(=O)CNC2CCc3ncnn3C2)on1 (centres undefined),0.1365,14.61
Cn1cc(C(=O)Nc2ccc(CC(=O)NCC(F)(F)F)cc2)nn1,-1.629,7.692
CN(C)C(=O)CCS(=O)(=O)Cc1ccn(-c2cccc(F)c2)n1,-3.871,11.69
Cc1nc2c(c(NC(C)C)n1)CCN(C(=O)CCO)CC2,8.767,-31.82
NC(=O)C(NC1CCN(Cc2ccc(F)cc2)CC1)c1ccccc1 (centres undefined),1.122,15.69
Cc1cc(C)c(-n2cccn2)c(CN2CCOCC(CN(C)C)C2)c1 (centres undefined),4.861,13.95
CCN(C(=O)c1ccc2nnc(C3CCN(S(C)(=O)=O)C3)n2c1)C(C)C (centres undefined),-5.694,-32
CO[C@H]1CNC[C@@H]1NC(=O)c1cc(C)nc2c(C)cc(C)cc12,1.461,21.13
Cc1c(C(=O)N2CCN(c3ncccn3)CC2)n(C)c2ccc(Cl)cc12,3.027,16.48
CNC(=O)c1sccc1N(C)S(=O)(=O)c1ccc(Cl)cc1,4.381,17.5

For reference, 3 entries once more:

compound	ClpP1P2	LiHisRS
CN(CCCOc1ccccc1)Cc1nc2c(cnn2C)c(=O)[nH]1	-33.21	13.39
O=C(CCCOc1cccc(F)c1)N1CCCC(n2cccn2)C1 (centres undefined)	-15.01	13.68
CN1CCCC1c1ccnc2nccn12 (centres undefined)	-6.231	9.79

Data taken from ChEMBL document CHEMBL3988442, “University of Dundee, Small-Polar-MMV Screening Library” (2021).